In publication PMC12948281 one finds binding data, which are given here for 1 substance.

No constants are given. Whether binding was seen depends on the method and setting. Binding seen in cells or lysates may run through a third protein. Some binding calls cover weakened binding; strength is not graded here.

In assay [1] the target is wild-type (WT) FLAG-FTH1 (human) (UniProt P02794). Nature of the assay: co-IP; TS^CT cells transfected with FLAG-tagged FTH1 plasmids (WT or AAIKK) for 48 h, with or without testosterone (20 µM) for another 24 h; lysate precleared with protein A+G agarose, anti-FLAG M2 magnetic beads 1 h at room temperature, TBS washes; Western blot for endogenous Hsc70. (A western blot detects proteins with antibodies after separation by electrophoresis.)

The target of assay [2] is FLAG-FTH1 with the KFERQ-like motif QDIKK mutated to AAIKK (human) (UniProt P02794). Described as above.

“heat shock cognate protein Hsc70 (encoded by HSPA8), endogenous in TS^CT cells (from UniProt P11142 1-646)”: the binding result in assay [1] and in assay [2] was “binds” throughout.
